Results taken from PubChem BioAssay AID540275 (National Center for Advancing Translational Sciences (NCATS), 2011).
Hit rate of the full screen: of about 320,000 compounds, about 620 (0.19%) were called active. The shares of active, inactive and inconclusive entries below differ from those in the screen. Rule as the data show it: active = activation above about 80%; inconclusive = between about 30% and that limit; inactive = weaker than that.

Sequences of proteins named here, by UniProt entry; tags and fusion partners are left off.
UniProt Q8NER1, whole entry, looked up: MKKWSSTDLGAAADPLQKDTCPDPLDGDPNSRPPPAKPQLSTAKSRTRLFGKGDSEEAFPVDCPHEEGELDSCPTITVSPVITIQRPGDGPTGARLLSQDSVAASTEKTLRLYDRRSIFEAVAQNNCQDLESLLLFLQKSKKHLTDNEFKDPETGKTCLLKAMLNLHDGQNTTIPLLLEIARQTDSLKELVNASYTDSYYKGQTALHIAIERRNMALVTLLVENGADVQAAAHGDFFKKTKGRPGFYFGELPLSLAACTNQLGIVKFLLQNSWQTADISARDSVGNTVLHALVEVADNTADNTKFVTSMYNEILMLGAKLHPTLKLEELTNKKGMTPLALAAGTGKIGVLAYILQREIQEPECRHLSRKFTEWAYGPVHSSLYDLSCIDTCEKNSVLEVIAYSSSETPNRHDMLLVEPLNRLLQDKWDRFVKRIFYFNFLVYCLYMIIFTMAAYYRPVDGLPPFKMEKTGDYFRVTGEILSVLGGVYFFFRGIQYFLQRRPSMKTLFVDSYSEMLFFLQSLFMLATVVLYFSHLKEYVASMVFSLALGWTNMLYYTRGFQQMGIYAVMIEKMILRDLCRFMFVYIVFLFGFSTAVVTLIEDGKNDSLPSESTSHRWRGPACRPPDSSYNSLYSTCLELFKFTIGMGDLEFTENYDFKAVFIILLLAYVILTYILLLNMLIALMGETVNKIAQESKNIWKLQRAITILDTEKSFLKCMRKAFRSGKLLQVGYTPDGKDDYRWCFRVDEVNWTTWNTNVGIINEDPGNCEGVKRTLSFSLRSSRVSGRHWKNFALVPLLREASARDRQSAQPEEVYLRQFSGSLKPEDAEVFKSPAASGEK

Each molecule was assayed against Transient receptor potential cation channel subfamily V member 1 (Homo sapiens) (UniProt Q8NER1) (assay: HTS Assay for Compounds that Act as Agonists of the Vanilloid Receptor 1). Details: TRPV1-expressing cells, Fluo-8 calcium influx, agonist mode; at 8.33 µM, active compounds read high.
Summary of the method: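 TRPV1-expressing cells were cultured overnight at 35.5C and loaded with Fluo-8 calcium dye for 40 to 90 min at room temperature. After a 10 s baseline, compound was added and calcium influx was read kinetically for 3 min (ex 480/em 520 nm).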
Also: 0% is about no effect.

Compound	activation
COC(=O)c1ccc(C)c(NC(=O)CCc2ccc(OC)cc2)c1	inconclusive: 32.6%
CC1=NN(C(N)=S)C(=O)C1N=Nc1ccc(Cl)cc1Cl (stereo not drawn)	inactive: -0.847%
O=C(Nc1ccc2c(c1)OCCO2)c1ccc(S(=O)(=O)N2CCCCC2)cc1	inconclusive: 34.9%
CCN(C(=O)COC(=O)CNC(=O)c1ccc(C)s1)c1ccccc1	inactive: 0.474%
COc1ccccc1NC(=O)N1CCc2[nH]c3ccc(Cl)cc3c2C1	inconclusive: 67.6%
CCc1nc(Nc2ccc3nccnc3c2)c2oc3ccccc3c2n1	inconclusive: 73.5%
Cc1nc2ccccc2n1CCOc1ccc([N+](=O)[O-])cc1	inactive: 6%
Cc1nc2ccccn2c1C(=O)NNC(=O)Nc1cccc(C(F)(F)F)c1	inactive: -8.44%
CCC(CC)NC(=O)c1cccc(Oc2ccccc2)c1	inconclusive: 35.9%
COc1cccc(-c2nn(-c3ccc(F)cc3)cc2C(=O)NCC2CCCO2)c1 (stereo not drawn)	inconclusive: 57.3%
COc1ccc(NC(=O)N2CCC(c3nc(-c4cccs4)no3)CC2)cc1	inconclusive: 35%
C(=C\c1nc(N2CCCCCC2)c2ccccc2n1)/c1ccccc1	inconclusive: 32.5%
Cc1ccc(C(=O)N2CCN(c3cccc(C)c3C)CC2)o1	inconclusive: 62%
COc1ccc(-c2ccc(CCC(=O)O)n2-c2ccccc2OC)cc1	inactive: -1.57%
CCCC(C)C(=O)NCc1ccncc1 (stereo not drawn)	inconclusive: 41.1%
CC1CCc2c(sc3nc(C(C)(C)C)nc(N4CCN(C(=O)CCl)CC4)c23)C1 (stereo not drawn)	inconclusive: 60.7%
COC(=O)COc1ccc(S(=O)(=O)Nc2ccc(C(N)=O)cc2)cc1Cl	inconclusive: 54.1%
Nc1ccc2ncccc2c1	inactive: 1.49%
COCCN=C1Sc2nc3ccc(C)cc3cc2CN1Cc1cccs1	inconclusive: 45.4%
Cc1ccc2nc(NC(=O)CSCC(=O)OCC(=O)c3ccccc3)sc2c1	inactive: 0.252%

Compound	activation
O=C(c1ccc(-n2c(SCc3cccc(F)c3)nc3ccccc3c2=O)cc1)N1CCOCC1	active: 87.5%
CCc1ccccc1NC(=O)C1C(c2ccccc2)C1(Cl)Cl (stereo not drawn)	inconclusive: 38.2%
COC(=O)c1cn(NC(=O)C2CCCCC2)c(=O)c2ccccc12	inconclusive: 65.1%
CC1CCN(S(=O)(=O)c2ccc(NC(=O)CCN3C(=O)C4CC=CCC4C3=O)cc2)CC1 (stereo not drawn)	inconclusive: 49.5%
COc1ccc(-c2cc(C(F)(F)F)nc(SCC(=O)NCc3cnn(C)c3C)n2)cc1OC	inconclusive: 51.3%
COP(=O)(OC)C(Nc1ccc([N+](=O)[O-])cc1)c1ccccc1 (stereo not drawn)	inactive: -1.51%
O=C(c1cc2ccccc2o1)N1CCN(Cc2ccc3c(c2)OCO3)CC1	inconclusive: 42.3%
O=C(NCc1cccnc1)c1ccc(-c2cc(Cl)ccc2Cl)o1	inconclusive: 77.3%
CCOC(=O)c1sc(C)c2c1NC(C)(c1cccc3ccccc13)NC2=O (stereo not drawn)	inconclusive: 31.6%
NS(=O)(=O)c1ccc(NC(=O)c2ccc3c(c2)CCN3S(=O)(=O)c2ccccc2)cc1	inconclusive: 39.1%
CCC(NC(=S)NCc1ccc(F)cc1)c1ccccc1 (stereo not drawn)	inconclusive: 59.8%
O=C(CSc1cn(Cc2ccccc2)c2ccccc12)NCc1ccc(F)cc1	inconclusive: 46%
CC(c1cccs1)N(Cc1ccco1)C(=O)Nc1ccc(Cl)c(Cl)c1 (stereo not drawn)	inconclusive: 33.1%
O=C(OCc1ccccc1)/C(=C/c1ccc(Cl)cc1)NC(=O)c1ccccc1Cl	inconclusive: 30.8%
O=C(NCc1ccc2c(c1)OCO2)c1cc2c(s1)CS(=O)(=O)C2	inconclusive: 38.1%
CCc1nc(Nc2ccccc2)c2oc3ccccc3c2n1	active: 84.2%
O=C(CNC(=O)/C(=C\c1ccccc1)NC(=O)c1ccc(Br)cc1)OCc1ccccc1	inactive: -2.75%
Cc1ccc(OCC(=O)N2CCC3(CC2)CC(=O)c2ccccc2O3)cc1	inconclusive: 69.4%
O=C(OCC(=O)N1CCC(Cc2ccccc2)CC1)c1ccc(CO)cc1	inconclusive: 38.1%
O=C(COc1ccc(Br)cc1)Nc1ccc2oc(=O)ccc2c1	inconclusive: 54.7%

2 of the compounds above, in CSV form:
Compound,activation
CCc1ccccc1NC(=O)C1C(c2ccccc2)C1(Cl)Cl (stereo not drawn),inconclusive: 38.2%
CCOC(=O)c1sc(C)c2c1NC(C)(c1cccc3ccccc13)NC2=O (stereo not drawn),inconclusive: 31.6%

Arranged by formula weight (low to high): some entries from above.
Compound	activation
COP(=O)(OC)C(Nc1ccc([N+](=O)[O-])cc1)c1ccccc1 (stereo not drawn)	inactive: -1.51%
O=C(c1cc2ccccc2o1)N1CCN(Cc2ccc3c(c2)OCO3)CC1	inconclusive: 42.3%
O=C(OCc1ccccc1)/C(=C/c1ccc(Cl)cc1)NC(=O)c1ccccc1Cl	inconclusive: 30.8%

(listing goes on)

Compound	activation
CC(C)OC(=O)CSc1nc(N2CCOCC2)c2c(c1C#N)CC(C)(C)OC2	inconclusive: 62.8%
Cc1nn(-c2ccccc2)c(Cl)c1/C=C(\C#N)C(=O)NC(C)C	inconclusive: 44%
O=C(COC(=O)Cc1ccccc1[N+](=O)[O-])NCc1ccccc1Cl	inconclusive: 47%
O=C1N=C(N2CCCC2)S/C1=C\C=C\c1ccccc1	inconclusive: 33.9%
O=C(c1cc(S(=O)(=O)N2CCOCC2)ccc1F)N(CCc1ccccc1)Cc1ccccc1	inconclusive: 76%
C=CCn1c(COc2ccccc2)nnc1SCC(=O)C(C)(C)C	inconclusive: 43.1%
COc1c(C)cccc1C(=O)NC(=S)Nc1ccccc1N1CCCC1	inactive: 8.02%
O=C(Cc1cccs1)N1CCN(c2ccc([N+](=O)[O-])cc2)CC1	inconclusive: 40.9%
CCOc1ccccc1CNC(=O)c1ccc(Sc2ccc(Cl)cc2)c(NC(C)=O)c1	inactive: 0.586%
CCCCC(=O)Nc1ccc(C(=O)c2ccccc2)cc1	inconclusive: 40.9%
CC(C)c1ccc(NC(=O)c2csnn2)cc1	inconclusive: 33%
Cc1ccccc1-n1ncc2c1CC(C)(C)CC2NC(=O)c1cn[nH]c1C (stereo not drawn)	inconclusive: 38.6%
COC(CNC(=O)c1ccc(N2CCc3ccccc32)c([N+](=O)[O-])c1)OC	inconclusive: 38.9%
Cc1cc(C(=O)Nc2nnc(C3CCCCC3)s2)cs1	inconclusive: 36.4%
COC(=O)c1ccc(COc2cccc3c2OC(C)(C)C3)cc1	inconclusive: 68.5%
CCOC(=O)c1c(-c2ccccc2)csc1NC(=O)/C(C#N)=C/c1ccc(OC)c(OC)c1	inactive: -0.0285%
Cc1cc(C)c(C)c(Cn2c(CO)nc3ccccc32)c1C	inactive: 7.13%
CCCSc1ccc(-c2nn(-c3ccccc3)cc2/C=C(/C#N)C(=O)NCCCOC)cc1	inconclusive: 54.4%
